Assay [1] concerns the target T1, His6-Atg29 (Saccharomyces cerevisiae) (UniProt Q12092).
T1 sequence: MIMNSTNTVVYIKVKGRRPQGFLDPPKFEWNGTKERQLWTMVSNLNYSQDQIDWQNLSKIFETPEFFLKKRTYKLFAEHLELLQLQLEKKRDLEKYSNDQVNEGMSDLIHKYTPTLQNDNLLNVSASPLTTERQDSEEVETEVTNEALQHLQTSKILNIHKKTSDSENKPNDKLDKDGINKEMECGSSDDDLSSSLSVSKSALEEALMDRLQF
In words: SEC; ternary complex co-expressed in E. coli, captured on Ni-NTA by His6-Atg29, then Superose 6 10/300GL in 20 mM Tris pH 8, 200 mM NaCl, 0.1 mM TCEP; peak fractions analysed by SDS-PAGE; both purified. For orientation: In gel filtration, larger molecules generally elute earlier.

Assay [2] addresses T2, Atg31 (Saccharomyces cerevisiae) (UniProt Q12421).
T2 sequence: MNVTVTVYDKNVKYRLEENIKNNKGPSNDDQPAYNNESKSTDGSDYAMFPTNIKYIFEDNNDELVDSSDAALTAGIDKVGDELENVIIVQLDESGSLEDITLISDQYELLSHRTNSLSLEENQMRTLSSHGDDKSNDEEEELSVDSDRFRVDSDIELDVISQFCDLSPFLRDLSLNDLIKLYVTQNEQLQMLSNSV
Described as above.

Positions count from the first letter of the chain named. In names and notes the source's numbering stands. Results are given in words; binding and its absence hold for the method and conditions named. Some results given as binding are weak or reduced against the parent protein; the word gives no strength. Tags and fused reporters may be left off the sequences shown.

B1: Atg31 (protein, UniProt Q12421 1-196)
chain: T2 sequence
For the molecule B1, in assay [1], the binding result is “binds”.

B2: Atg17, wild type (natural protein, Saccharomyces cerevisiae, UniProt Q06410 1-417, looked up)
chain: MNEADVTKFVNNARKTLTDAQLLCSSANLRIVDIKKKLSSWQLSISKLNFLIVGLRQQGKFLYTILKEGIGTKLIQKQWNQAVLVVLVDEMKYWQYEITSKVQRLDGIVNELSISEKDDTDPSKLGDYISRDNVNLLNDKLKEVPVIERQIENIKLQYENMVRKVNKELIDTKLTDVTQKFQSKFGIDNLMETNVAEQFSRELTDLEKDLAEIMNSLTQHFDKTLLLQDKKIDNDEREELFKVVQGDDKELYNIFKTLHEVIDDVDKTILNLGQFLQAKIKEKTELHSEVSEIINDFNRNLEYLLIFKDISNLIDSFKNSCTQDIQTTKELCEFYDNFEESYGNLVLEAKRRKDVANRMKTILKDCEKQLQNLDAQDQEERQNFIAENGTYLPETIWPGKIDDFSSLYTLNYNVKNP
notes: Atg17, Saccharomyces cerevisiae; The Atg17 chain of m1; source: E. coli BL21 (DE3), co-expressed with Atg31 and His6-Atg29 from pST39, purified (Ni-NTA, Superose 6)
With B2, the binding entry in assay [2] and in assay [1] was “binds” each time.

B3: Atg17 mutant M1 (K318D/Q326D/K329D) (natural protein, Saccharomyces cerevisiae, UniProt Q06410 1-417, looked up)
chain: B2 chain with K318D, Q326D, K329D
notes: Atg17, Saccharomyces cerevisiae; The Atg17 chain of m2; source: E. coli BL21 (DE3), co-expressed with Atg31 and His6-Atg29 from pST39, purified (Ni-NTA, Superose 6)
For the molecule B3, the binding result in assay [2] and in assay [1] was “binds” in each case.

B4: Atg17 mutant M5 (K92D/L141D) (natural protein, Saccharomyces cerevisiae, UniProt Q06410 1-417, looked up)
chain: B2 chain with K92D, L141D
notes: Atg17, Saccharomyces cerevisiae; The Atg17 chain of m6; source: E. coli BL21 (DE3), co-expressed with Atg31 and His6-Atg29 from pST39, purified (Ni-NTA, Superose 6)
As for B4, the binding entry in assay [2] and in assay [1] was “binds” in each case.

B5: Atg17 mutant M3 (K8D/R14D/K249D) (natural protein, Saccharomyces cerevisiae, UniProt Q06410 1-417, looked up)
chain: B2 chain with K8D, R14D, K249D
notes: Atg17, Saccharomyces cerevisiae; The Atg17 chain of m4; source: E. coli BL21 (DE3), co-expressed with Atg31 and His6-Atg29 from pST39, purified (Ni-NTA, Superose 6)
As for B5, the binding entry in assay [2] and in assay [1] was “binds” each time.

B6: Atg17 mutant M4 (K164D/K173D/R299D) (natural protein, Saccharomyces cerevisiae, UniProt Q06410 1-417, looked up)
chain: B2 chain with K164D, K173D, R299D
notes: Atg17, Saccharomyces cerevisiae; The Atg17 chain of m5; source: E. coli BL21 (DE3), co-expressed with Atg31 and His6-Atg29 from pST39, purified (Ni-NTA, Superose 6)
On to B6, for which the binding entry in assay [2] and in assay [1] was “binds” each time.

B7: Atg17 mutant M2 (K318D/K329D/Y93E/W94E) (natural protein, Saccharomyces cerevisiae, UniProt Q06410 1-417, looked up)
chain: B2 chain with Y93E, W94E, K318D, K329D
notes: Atg17, Saccharomyces cerevisiae; The Atg17 chain of m3; source: E. coli BL21 (DE3), co-expressed with Atg31 and His6-Atg29 from pST39, purified (Ni-NTA, Superose 6)
B7: the binding result in assay [2] and in assay [1] was “binds” each time.
